Data: the supplement of paper PMC12823440, “Inhibitors supercharge kinase turnover through native proteolytic circuits” (Nature, 2025)
Counter-ions that a name gives are not always drawn. This is one part of the list. Hit calls seldom repeat between salt and free forms of one compound.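 In K562 cells expressing nanoluciferase-fused kinases, luminescence was recorded at 4 h intervals between 2 and 18 h, normalized as percent of control with DMSO at 100% and a positive control at 0%. A significant (2 sigma) signal drop marks a time point as decreased. The authors' rule for a hit is not shown and takes in more than the number of time points.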

target: FGR (UniProt P09769); assay: kinase-Nluc reporter destabilization hit call (1 = scored as downregulated) (binary); higher = compound decreases kinase abundance; conditions: K562; 2-18 h

kinase-Nluc reporter destabilization hit call, inactive:
Cc1[nH]c(/C=C2\C(=O)Nc3ccccc32)c(C)c1CCC(=O)O [(Z)-Orantinib] (10 µM) 0
NC(=O)c1ccc(-c2nc(-c3ccc4c(c3)OCCO4)c(-c3ccccn3)[nH]2)cc1 (10 µM) 0
CCNc1nc(Nc2cc(F)c(C(=O)N3CCOCC3)cc2OC)ncc1C(F)(F)F [GNE-7915 (tosylate)] (10 µM) 0
Cc1cc(O)c2c(c1)C(=O)c1cc(O)cc(O)c1C2=O [Emodin] (10 µM) 0
Cc1ccc(C(=O)Nc2ccc(Oc3cc4cnn(C)c4cc3-c3cn[nH]c3)c(F)c2)c(=O)n1-c1ccc(F)cc1 [Merestinib dihydrochloride] (2.5 µM) 0
C=CC(=O)Nc1cc(C)ccc1Nc1nc(Nc2cc(OC)ncc2C)ncc1C(F)(F)F (10 µM) 0
Oc1cc(O)c2cc(O)c(-c3cc(O)c(O)c(O)c3)[o+]c2c1 [Delphinidin (chloride)] (10 µM) 0
O=C1NC(=O)/C(=C\c2cccc(C(F)(F)F)c2)S1 (2.5 µM) 0
Cc1nc2sccn2c(=O)c1CCN1CCC(=C(c2ccccc2)c2ccc(F)cc2)CC1 (10 µM) 0
CCc1cc2c(cc1N1CCC(N3CCOCC3)CC1)C(C)(C)c1[nH]c3cc(C#N)ccc3c1C2=O [Alectinib (Hydrochloride)] (2 µM) 0
FC(F)(c1ccc2ncccc2c1)c1nnc2ccc(-c3ccncc3)nn12 (10 µM) 0
